Data as given in PubChem BioAssay AID528 (NMMLSC, 2006).
In all, about 24,000 compounds went through this assay and fewer than 10 were called active. The shares of active, inactive and inconclusive entries below differ from those in the screen.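 How the source made its calls: active means fluorescent ligand binding to cells raised by more than 40% of the manganese-induced maximum; inconclusive means compound's own fluorescence above 85% of the ligand control signal; inactive means the rest.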

Amino acid sequences for entries named in this document (tags omitted).
UniProt P13612, whole entry, looked up: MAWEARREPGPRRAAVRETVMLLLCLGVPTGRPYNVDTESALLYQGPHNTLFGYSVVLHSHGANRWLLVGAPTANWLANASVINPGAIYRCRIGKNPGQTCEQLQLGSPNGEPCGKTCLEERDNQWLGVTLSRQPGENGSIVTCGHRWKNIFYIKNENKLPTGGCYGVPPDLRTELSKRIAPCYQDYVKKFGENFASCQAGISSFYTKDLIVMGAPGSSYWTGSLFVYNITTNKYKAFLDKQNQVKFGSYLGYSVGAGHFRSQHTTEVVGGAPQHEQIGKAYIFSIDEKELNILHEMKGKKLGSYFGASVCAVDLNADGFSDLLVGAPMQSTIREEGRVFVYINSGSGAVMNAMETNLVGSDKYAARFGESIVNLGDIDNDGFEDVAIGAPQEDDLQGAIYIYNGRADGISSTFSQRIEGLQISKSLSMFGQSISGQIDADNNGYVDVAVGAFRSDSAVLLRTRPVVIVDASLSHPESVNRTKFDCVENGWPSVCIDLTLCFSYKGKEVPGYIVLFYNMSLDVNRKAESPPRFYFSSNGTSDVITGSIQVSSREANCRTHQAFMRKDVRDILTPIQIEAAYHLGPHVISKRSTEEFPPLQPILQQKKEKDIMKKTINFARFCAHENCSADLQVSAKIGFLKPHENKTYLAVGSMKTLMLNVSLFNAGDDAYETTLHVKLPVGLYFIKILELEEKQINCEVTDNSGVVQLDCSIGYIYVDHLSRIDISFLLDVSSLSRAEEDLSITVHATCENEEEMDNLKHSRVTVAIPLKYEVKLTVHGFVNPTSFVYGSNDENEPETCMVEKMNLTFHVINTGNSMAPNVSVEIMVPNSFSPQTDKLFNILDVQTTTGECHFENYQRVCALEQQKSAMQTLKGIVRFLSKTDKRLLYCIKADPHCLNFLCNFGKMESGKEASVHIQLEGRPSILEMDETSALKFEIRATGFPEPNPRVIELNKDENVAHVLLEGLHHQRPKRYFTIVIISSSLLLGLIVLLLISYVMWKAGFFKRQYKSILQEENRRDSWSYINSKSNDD

molecular target: Integrin alpha-4 (Homo sapiens) (UniProt P13612); assay: enhancers of LDV-FITC binding to VLA-4 integrin, primary screen, Jurkat cells, flow cytometry (AID 528); conditions: active compounds read high, screened at 10 µM (by protocol);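 on activation: 0% = ligand binding without compound and 100% = manganese-stimulated maximal binding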

SMILES	activation
CC(=O)Nc1cc(C(=O)O)ccc1S(=O)(=O)c1ccc(Cl)cc1	inactive: 5%
CCCCn1c(=S)[nH]c2ncccc2c1=O	inactive: 1%
COc1ccc2nc3oc(C(=O)N4CCC(C(N)=O)CC4)cc3cc2c1	inconclusive
O=C(O)c1cccc(NS(=O)(=O)c2cccc3cccnc23)c1	inactive: 3%
O=C(CC1Oc2ccccc2NC1=O)NCc1ccc(Cl)cc1 (stereo not drawn)	inconclusive
COC(=O)c1cc2sccc2n1CC(=O)Nc1cccc(SC)c1	inconclusive
CCOc1ccc(CCNC(=O)c2nnc(Cc3ccc(F)cc3)o2)cc1OCC	inconclusive
COc1ccc(C(=O)Nc2nncs2)cc1S(=O)(=O)N1CC(c2ccccc2)CC1=O (stereo not drawn)	inactive: 6%
COc1ccc(NC(=O)CCc2nc(-c3ccc(C)cc3)no2)cc1Cl	inconclusive
CCOC(=O)c1c(C2CCN(C(=O)OCC)CC2)nc2ccccn12	inconclusive
Cc1cc(NS(=O)(=O)c2ccc(NC(=O)CN3C(=O)c4ccccc4C3=O)cc2)nc(C)n1	inconclusive
CCS(=O)(=O)N1CCC(C(=O)N2CCc3ccccc3C2)CC1	inactive: 0%
Cc1ccc(C2C3=C(CC(C)(C)CC3=O)Nc3[nH]c(=S)[nH]c(=O)c32)cc1 (stereo not drawn)	inactive: 7%
O=C(NCc1ccc(Cl)cc1)c1noc2c1CCCCC2	inactive: -2.3%
CCOc1ccc(-c2nc(-c3ccccc3)no2)cc1OCC	inconclusive
FC(F)Oc1ccccc1C1CC(c2ccc(Br)s2)Nc2ncnn21 (stereo not drawn)	inactive: 3%
Cc1ccc(C)c(NS(=O)(=O)c2c(C)nn(C)c2C)c1	inconclusive
CN(CC(=O)NCc1cccs1)S(=O)(=O)c1cccc2cccnc12	inconclusive
COc1ccc(-c2nc3n(c(=O)c2C#N)CCCS3)cc1	inconclusive
CC1(C(=O)NCc2cccnc2)CCC(=O)N1Cc1cccs1 (stereo not drawn)	inactive: 1%
CCn1cc(C(=O)NC2CCCCCC2)c(=O)c2cc(S(=O)(=O)N3CCCCC3)ccc21	inconclusive
CCCN1Cc2cccc(C(=O)Nc3ccc(OC)c(OC)c3)c2C1=O	inactive: 4%
CN=Cc1sc2ccccc2c1O	inconclusive
CCCCN(C)C(=O)c1coc(=O)c2ccccc12	inconclusive
Cn1c(=O)cc(SCC(=O)NCCCN2CCN(c3ccc(F)cc3)CC2)c2ccccc21	inconclusive

6 successive compounds already listed, for reference:
SMILES	activation
COc1ccc(NC(=O)CCc2nc(-c3ccc(C)cc3)no2)cc1Cl	inconclusive
CCOC(=O)c1c(C2CCN(C(=O)OCC)CC2)nc2ccccn12	inconclusive
Cc1cc(NS(=O)(=O)c2ccc(NC(=O)CN3C(=O)c4ccccc4C3=O)cc2)nc(C)n1	inconclusive
CCS(=O)(=O)N1CCC(C(=O)N2CCc3ccccc3C2)CC1	inactive: 0%
Cc1ccc(C2C3=C(CC(C)(C)CC3=O)Nc3[nH]c(=S)[nH]c(=O)c32)cc1 (stereo not drawn)	inactive: 7%
O=C(NCc1ccc(Cl)cc1)c1noc2c1CCCCC2	inactive: -2.3%

Later entries

SMILES	activation
CCCN(C(=O)CSc1nnc(-c2ccoc2C)n1N)C1CCS(=O)(=O)C1 (stereo not drawn)	inactive: -7%
CC1CCN(C(=O)c2cc(-c3ccccc3O)on2)CC1	inconclusive
COc1ccc(NC(=O)CSc2nc3ccccc3c(=O)n2-c2ccc3c(c2)OCO3)c(OC)c1	inconclusive
CCOC(=O)N1CCN(C(=O)C2CCN(Cc3nc(-c4ccccc4C)oc3C)CC2)CC1	inconclusive
COC(=O)c1ccc2c(c1)NC(=O)C1CCCN21 (stereo not drawn)	inconclusive
CC(C)CCNC(=O)Cn1c(NCCC(C)C)nc2c1c(=O)n(C)c(=O)n2C	inactive: 1.7%
Cn1c(=O)cc(SCC(=O)NCC2COc3ccccc3O2)c2ccccc21 (stereo not drawn)	inconclusive
Cc1nc2sc(C(c3ccc(Cl)cc3)N3CC(C)OC(C)C3)c(O)n2n1 (stereo not drawn)	inconclusive
COc1ccccc1OCc1ccc(C(=O)Nc2ccncc2)o1	inactive: 2%
COc1ccc(N2CCN(C(c3ccco3)c3sc4nc(C)nn4c3O)CC2)cc1 (stereo not drawn)	inconclusive
Fc1ccc(NCc2nnc(SCc3nnc(-c4ccccc4)o3)n2CC2CCCO2)cc1 (stereo not drawn)	inconclusive
COc1ccc(CNC(=O)c2cnn3c(C(F)F)cc(C)nc23)cc1OC	inactive: 4%
CCCCN(C)S(=O)(=O)c1cc(Br)cc2c1N(C(=O)C1CC1)CC2	inconclusive
CCOC(=O)CSC1=Nc2ccccc2C2=NC(CC(=O)NCc3ccc4c(c3)OCO4)C(=O)N12 (stereo not drawn)	inconclusive
Cc1cccc(N2CCN(S(=O)(=O)c3ccc4c(c3)n(C)c(=O)c(=O)n4C)CC2C)c1 (stereo not drawn)	inconclusive
CCOC(=O)c1sc(NC(=O)COC(=O)Cn2cnc3ccccc32)c(C(=O)OCC)c1C	inconclusive
CCOC(=O)c1sc2nc(CC(=O)OC)nc(NCc3ccco3)c2c1C	inconclusive
CCN1CCN(C(c2cccs2)C(C)NC(=O)c2cccc(OC)c2OC)CC1 (stereo not drawn)	inconclusive
O=C(Nc1ccccc1C(=O)NCCCn1ccnc1)c1ccccc1	inconclusive
C=CCOc1ccc(C2/C(=C(\O)c3c(C)[nH]c(C(=O)OC)c3C)C(=O)C(=O)N2CCN(C)C)cc1 (stereo not drawn)	inactive: -6%
Cc1cccc(OCC2=NS(=O)(=O)c3ccccc3N2)c1	inconclusive
COc1cc2nc(NCC3CCCO3)n3nc(-c4cccnc4)nc3c2cc1OC (stereo not drawn)	inconclusive
O=C(O)CSCNC(=O)CC12CC3CC(CC(C3)C1)C2	inactive: 13%
O=C(NCc1cccs1)C1CCC(=O)N1C1CCCCC1 (stereo not drawn)	inactive: 0%
CCCOC(=O)C1=C(C)NC2=C(C(=O)C(C(=O)OC)C(C)C2)C1c1ccc(N(CC)CC)cc1 (stereo not drawn)	inconclusive

SMILES	activation
C/C(=N\n1nnnc1Nc1ccccc1)c1ccc(N)cc1	inactive: -2%
CCOC(=O)c1[nH]c(C)c(C(=O)NCc2cccnc2)c1C	inconclusive
CCn1cc(C(=O)NCCCOC)c(=O)c2cc(S(=O)(=O)N(C)C)ccc21	inactive: -3%
CN1C(=O)NC(c2cccc(O)c2)C(C(=O)c2cccs2)C1(O)C(F)(F)F (stereo not drawn)	inconclusive
CCCn1c(C)cc(=O)c2cc(NC(=O)c3cnccn3)ccc21	inconclusive
CCn1c(C)csc1=NC(=O)c1ccccc1O	inconclusive
COC(=O)C1C(=O)C2=C(CC1C)NC(C)=C(C(=O)OCCOc1ccccc1)C2c1ccc(C)o1 (stereo not drawn)	inactive: -6%
CCOC(=O)N1CCN(C(=O)CS(=O)Cc2nc(-c3cccc(C)c3)oc2C)CC1 (stereo not drawn)	inconclusive
Cc1cccc(N2CCN(C(=O)Cn3sc4nc(C)cc(C)c4c3=O)CC2C)c1 (stereo not drawn)	inconclusive
COc1ccccc1Cc1nc(-c2ccc(Br)o2)no1	inactive: 0%
COc1ccccc1C1C(C(N)=O)=C(C)Nc2nc(-c3ccc(Cl)cc3)nn21 (stereo not drawn)	inactive: -4%
Fc1ccc(Br)cc1C1C=C(c2ccc(Br)s2)Nc2ncnn21 (stereo not drawn)	inconclusive
CCSc1nnc(NC(=O)CSc2nnc(Cc3cccn3C)n2CCc2ccccc2)s1	inactive: -2%
COc1ccccc1-n1c(CNC(=O)c2ccco2)nnc1SCC(=O)Nc1cc(C)ccc1C	inactive: 1%
O=C(NC1CCCC1)C1CC1c1ccccc1 (stereo not drawn)	inactive: -3.5%
CN(C)c1nc(Nc2ccc(Cl)cc2)nc(OCC#N)n1	inactive: -7.5%
COC(=O)N1CC(=O)N(OC)C1c1ccc(Cl)cc1Cl (stereo not drawn)	inactive: -5%
COc1ccc(OC)c2[nH]c(=O)c(CCNC(=O)c3ccc(S(=O)(=O)N(C)C)cc3)cc12	inconclusive
Cc1ccc(S(=O)(=O)NCCC(=O)NC2CCCC2)cc1	inactive: 3%
CCN(CC)CCNC(=O)c1cn(C)c2ccc(S(=O)(=O)N(C)C3CCCCC3)cc2c1=O	inconclusive
Brc1cccc(C2CC(c3ccccc3)n3nnnc3N2)c1 (stereo not drawn)	inactive: -6%
c1cc(CNc2ccc3c(c2)OCO3)ccn1	inconclusive
CC(C)(Oc1ccc(Cl)cc1)C(=O)NCc1ccncc1	inconclusive
O=C(CCS(=O)(=O)Cc1ccccc1F)NCCCN1CCCCC1	inactive: -2%
Brc1cccc(-c2nnc3sc(CN4CCC5(CC4)OCCO5)cn23)c1	inconclusive

SMILES	activation
COc1ccc(N(CC(=O)N2CCc3ccccc3C2)S(=O)(=O)c2c(C)nn(C)c2C)cc1	inconclusive
Cc1c(C(=O)Nc2ccc3c(c2)OCCO3)sc2nc(-c3ccccc3)cn12	inconclusive
Fc1ccc2[nH]c3c(N4CCN(Cc5ccc6c(c5)OCO6)CC4)ncnc3c2c1	inconclusive
COC(=O)c1cc(=O)[nH]c(SCc2cccc(C)c2)n1	inconclusive
Cc1ccc(CNC(=O)c2nnn(-c3cccc(C)c3)c2N)cc1	inconclusive
COc1ccc(CCNc2oc(COc3ccc(Br)cc3)nc2C#N)cc1OC	inconclusive
Cc1cccn2c(=O)c(C=Nc3ccccc3)c(NCc3ccco3)nc12	inconclusive
O=C(NCc1ccco1)C1CCN(C(=O)c2cc3sccc3n2Cc2ccc(Cl)cc2)CC1	inconclusive
Cc1ccc(-c2nc(CS(=O)CC(=O)NCc3ccccc3)c(C)o2)cc1 (stereo not drawn)	inconclusive
COc1ccc(C(=O)Nc2ccc(S(=O)(=O)Nc3onc(C)c3C)cc2)cc1	inconclusive
CCn1cc(C(=O)NCCCN(C)c2ccccc2)c(=O)c2cc(S(=O)(=O)N(C)C)ccc21	inconclusive
COCCOC(=O)C1=C(C)N=C2SCCC(=O)N2C1c1cc(Br)ccc1OC (stereo not drawn)	inactive: -1%
COC(=O)c1cc2sc(Cl)cc2n1CC(=O)Nc1cccc(SC)c1	inconclusive
CCN(CC)c1nc2cc(OC)ccc2cc1C#N	inconclusive
O=S(NCc1ccco1)C12CC3CC(CC(C3)C1)C2 (stereo not drawn)	inactive: 0%
O=c1cc(O)nc(SCc2ccc(Cl)cc2)[nH]1	inconclusive
COc1ccc(N2CCN(Cc3nc4c(c(=O)[nH]c(=O)n4C)n3CCCc3ccccc3)CC2)cc1	inactive: -4%
COCCNC(=O)CS(=O)Cc1nc(-c2ccc(OC)cc2)oc1C (stereo not drawn)	inconclusive
C=CCSc1nc(N)c2c(C)c(C)sc2n1	inactive: 0%
O/N=C/c1ccc(OCC(O)COc2ccc(/C=N/O)cc2)cc1	inactive: 2%
Cc1cc(NC(=O)CSc2nnc(C3COc4ccccc4O3)o2)no1 (stereo not drawn)	inactive: 2%
Cc1cc(NC(=O)c2noc3c2CCc2ccccc2-3)n(-c2ccccc2)n1	inactive: 7%
COc1cccc2[nH]c3c(N4CCCC(C)C4)ncnc3c12 (stereo not drawn)	inconclusive
